Values from PubChem BioAssay AID1159584 (Peter MacCallum Cancer Centre, 2016).
Assay: 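Knock-downs that harm CDH1-null cells more than parental MCF10A cells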 (primary screen). Cells: human MCF10A breast epithelial cells, parental and CDH1-null. Knock-down reagent: siRNA against human genes. Measured: 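Cell viability by CellTiter-Glo ATP luminescence, each line scaled to the mean of mock wells across plates, then CDH1-null over parental ratio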. Scale: CDH1-null / parental viability ratio: higher = CDH1-null cells survive relatively better than parental.
The whole screen tested about 18,000 reagents; below is an unselected part. Further read-outs or replicates are left out here. Reagent sequences are not shown. The record does not give: the amount of reagent, the time to read-out.

| Target gene | CDH1-null / parental viability ratio |
| --- | --- |
| PIGO (phosphatidylinositol glycan anchor biosynthesis class O) | 1.14 |
| FMR1 (fragile X messenger ribonucleoprotein 1) | 1.29 |
| RFC5 (replication factor C subunit 5) | 1.31 |
| AMACR (alpha-methylacyl-CoA racemase) | 0.99 |
| ZNF620 (zinc finger protein 620) | 1.26 |
| RAB11A (RAB11A, member RAS oncogene family) | 1.1 |
| ELK1 (ETS transcription factor ELK1) | 1.33 |
| EREG (epiregulin) | 0.73 |
| ATP2A1 | 0.93 |
| SPIN2B (spindlin family member 2B) | 0.99 |
| DPH5 (diphthamide biosynthesis 5) | 0.96 |
| SLC2A5 | 1.31 |
| CLUH (CLUH binding protein of NUMT mRNA) | 1.08 |
| ZNF789 (zinc finger protein 789) | 0.94 |
| PDC (phosducin) | 0.8 |
| FTO (FTO alpha-ketoglutarate dependent dioxygenase) | 1.07 |
| CXCL1 (C-X-C motif chemokine ligand 1) | 0.84 |
| ASB5 (ankyrin repeat and SOCS box containing 5) | 1.05 |
| PROK1 (prokineticin 1) | 0.83 |
| MARCKSL1 (MARCKS like 1) | 0.82 |
| ADGRG1 (adhesion G protein-coupled receptor G1) | 1.4 |
| DAPP1 (dual adaptor of phosphotyrosine and 3-phosphoinositides 1) | 0.98 |
| MMP11 (matrix metallopeptidase 11) | 1.41 |
| DNA2 (DNA replication helicase/nuclease 2) | 0.83 |
| DELE1 (DAP3 binding cell death enhancer 1) | 1.12 |
| TRIM33 (tripartite motif containing 33) | 0.97 |
| PRRT2 (proline rich transmembrane protein 2) | 0.93 |
| MLXIPL (MLX interacting protein like) | 0.91 |
| PCDHA9 (protocadherin alpha 9) | 1.03 |
| CEP41 (centrosomal protein 41) | 1.08 |
| MEDAG (mesenteric estrogen dependent adipogenesis) | 0.91 |
| PIGT (phosphatidylinositol glycan anchor biosynthesis class T) | 1.19 |
| SRC (SRC proto-oncogene, non-receptor tyrosine kinase) | 0.92 |
| TARS1 (threonyl-tRNA synthetase 1) | 1.01 |
| PNPLA1 (patatin like domain 1, omega-hydroxyceramide transacylase) | 1.12 |
| TOR4A (torsin family 4 member A) | 0.85 |
| NPPA (natriuretic peptide A) | 1.36 |
| TMEM45B (transmembrane protein 45B) | 0.58 |
| SCGB2A2 (secretoglobin family 2A member 2) | 0.8 |
| CTNNA1 (catenin alpha 1) | 1.12 |
| PEX11B (peroxisomal biogenesis factor 11 beta) | 0.95 |
| TBC1D23 (TBC1 domain family member 23) | 1.08 |

The list goes on (9 carried over from the part before).
| Target gene | CDH1-null / parental viability ratio |
| --- | --- |
| TARS1 (threonyl-tRNA synthetase 1) | 1.01 |
| PNPLA1 (patatin like domain 1, omega-hydroxyceramide transacylase) | 1.12 |
| TOR4A (torsin family 4 member A) | 0.85 |
| NPPA (natriuretic peptide A) | 1.36 |
| TMEM45B (transmembrane protein 45B) | 0.58 |
| SCGB2A2 (secretoglobin family 2A member 2) | 0.8 |
| CTNNA1 (catenin alpha 1) | 1.12 |
| PEX11B (peroxisomal biogenesis factor 11 beta) | 0.95 |
| TBC1D23 (TBC1 domain family member 23) | 1.08 |
| PPP1R1B (protein phosphatase 1 regulatory inhibitor subunit 1B) | 1.31 |
| MSH3 (mutS homolog 3) | 1.07 |
| KDM6A (lysine demethylase 6A) | 1.29 |
| NR0B2 (nuclear receptor subfamily 0 group B member 2) | 0.98 |
| HBM (hemoglobin subunit mu) | 0.91 |
| COL10A1 (collagen type X alpha 1 chain) | 1.32 |
| GRN (granulin precursor) | 0.89 |
| THAP1 (THAP domain containing 1) | 1.12 |
| ZNF551 (zinc finger protein 551) | 1.13 |
| SNAI2 (snail family transcriptional repressor 2) | 0.88 |
| MPP2 (MAGUK p55 scaffold protein 2) | 0.81 |
| AFAP1 (actin filament associated protein 1) | 1.18 |
| SKA1 (spindle and kinetochore associated complex subunit 1) | 1.5 |
| CFAP53 (cilia and flagella associated protein 53) | 1.13 |
| NSFL1C (NSFL1 cofactor) | 0.69 |
| CNTRL (centriolin) | 0.84 |
| SACK1F (scaffolding CK1 anchoring protein F) | 0.98 |
| FGG (fibrinogen gamma chain) | 0.9 |
| TMEM268 (transmembrane protein 268) | 1.2 |
| ADAM15 (ADAM metallopeptidase domain 15) | 1.13 |
| GAL3ST3 (galactose-3-O-sulfotransferase 3) | 0.98 |
| MYL12B (myosin light chain 12B) | 1.32 |
| ZNF804A (zinc finger protein 804A) | 1 |
| VARS1 (valyl-tRNA synthetase 1) | 0.95 |
| CYP4F11 (cytochrome P450 family 4 subfamily F member 11) | 0.89 |
| ALPL (alkaline phosphatase, biomineralization associated) | 1.56 |
